Test results published in article PMC3174200.

Chains of the proteins cited; added tags and fusions are not shown. A change or cut given only in a name is not applied to a line headed by its entry. Chains listed by the source or under a name are the forms on record and can include a tag or linker.
UniProt Q9HC16: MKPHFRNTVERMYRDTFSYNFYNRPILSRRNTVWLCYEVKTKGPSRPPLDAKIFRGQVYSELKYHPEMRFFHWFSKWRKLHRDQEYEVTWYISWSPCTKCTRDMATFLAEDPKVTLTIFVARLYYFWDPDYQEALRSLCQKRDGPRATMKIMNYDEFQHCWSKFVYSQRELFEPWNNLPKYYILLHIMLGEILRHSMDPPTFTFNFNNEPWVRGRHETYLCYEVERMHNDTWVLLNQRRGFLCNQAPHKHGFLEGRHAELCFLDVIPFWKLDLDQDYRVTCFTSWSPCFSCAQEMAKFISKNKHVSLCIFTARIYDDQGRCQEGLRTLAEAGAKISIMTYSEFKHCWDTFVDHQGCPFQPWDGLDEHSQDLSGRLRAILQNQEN
Replication protein A (human RPA) (Homo sapiens), one chain, as listed by the source, chain 1 of 3: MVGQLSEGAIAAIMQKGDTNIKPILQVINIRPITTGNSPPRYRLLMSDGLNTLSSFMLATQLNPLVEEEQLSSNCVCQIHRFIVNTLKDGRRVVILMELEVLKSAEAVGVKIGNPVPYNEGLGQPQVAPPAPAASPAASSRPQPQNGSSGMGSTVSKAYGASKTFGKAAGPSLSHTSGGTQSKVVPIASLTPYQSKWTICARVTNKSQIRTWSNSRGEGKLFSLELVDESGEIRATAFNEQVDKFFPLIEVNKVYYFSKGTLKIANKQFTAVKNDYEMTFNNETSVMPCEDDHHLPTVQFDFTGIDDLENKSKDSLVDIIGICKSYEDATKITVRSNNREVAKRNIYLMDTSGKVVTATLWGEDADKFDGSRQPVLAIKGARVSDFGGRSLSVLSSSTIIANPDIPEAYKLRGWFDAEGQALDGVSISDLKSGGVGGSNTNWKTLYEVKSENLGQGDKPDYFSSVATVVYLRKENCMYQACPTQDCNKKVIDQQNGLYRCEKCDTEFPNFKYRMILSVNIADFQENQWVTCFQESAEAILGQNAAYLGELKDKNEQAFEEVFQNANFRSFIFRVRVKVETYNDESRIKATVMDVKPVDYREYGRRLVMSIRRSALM
Replication protein A (human RPA) (Homo sapiens), one chain, as listed by the source, chain 3 of 3: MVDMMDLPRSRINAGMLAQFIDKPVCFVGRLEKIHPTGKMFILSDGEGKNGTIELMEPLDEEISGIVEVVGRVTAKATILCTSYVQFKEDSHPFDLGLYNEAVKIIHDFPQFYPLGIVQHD
Replication protein A (human RPA) (Homo sapiens), one chain, as listed by the source, chain 2 of 3: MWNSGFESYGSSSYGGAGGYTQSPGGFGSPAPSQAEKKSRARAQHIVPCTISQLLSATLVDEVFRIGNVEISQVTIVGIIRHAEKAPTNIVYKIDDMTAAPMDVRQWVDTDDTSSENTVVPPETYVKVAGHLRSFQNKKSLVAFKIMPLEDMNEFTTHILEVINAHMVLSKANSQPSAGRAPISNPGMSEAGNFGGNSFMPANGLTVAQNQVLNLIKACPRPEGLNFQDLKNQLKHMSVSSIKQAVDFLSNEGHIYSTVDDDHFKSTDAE

Assays:
[1] = biological target: APOBEC3G (A3G) (Homo sapiens) (UniProt Q9HC16); experiment: EMSA; conditions: 5 mM Mg2+; 25 mM Tris-HCl pH 8.0, 50 mM NaCl, 5 mM MgCl2, 1 mM DTT, 10% glycerol, 15 min at 37 C; 4% acrylamide gel, 0.5x TBE (stated for A3G); protein in a lysate after overexpression; protein details: C-terminal Myc-His; label: 5'-Cy5; single-stranded DNA
[2] = test system: Replication protein A (human RPA) (Homo sapiens); experiment: EMSA; conditions: 25 mM Tris-HCl pH 8.0, 50 mM NaCl, 5 mM MgCl2, 1 mM DTT, 10% glycerol, 15 min at 37 C; 4% acrylamide gel, 0.5x TBE (stated for A3G); recombinant protein; label: 5'-Cy5; single-stranded DNA

**Q.** “AAGACCATGACCGCCAGCTCAAGTGTAAGTTACATGCATCTCTACCAGAAGTCAGAGGTTAGATTAGAGAGTATTT [EMSA oligonucleotide]” was tested. Which Kd [1] did it give?
**A.** 45 nM

**Q.** Does “AAGACCATGACCGCCAGCTCAAGTGTAAGTTACATGCATCTCTACCAGAAGTCAGAGGTTAGATTAGAGAGTATTT [EMSA oligonucleotide]” bind [2]?
**A.** binds

For at least one entry, the source does not settle the construct or the ends of the probe. For some assays here: Where cells or extracts were used, other partners may take part. For some assays here: At least one verdict rests on a figure or table, not on a statement of the authors.
